The campaign covered roughly 390,000 compounds. About 760 (0.19%) were called active. This list was built around the results that the source calls inconclusive (neither active nor inactive); the mix of calls is not that of the screen. The call rests on the fitted dose curve; in most records, active means well fitted inhibition curve with a large enough effect; inconclusive means small, poorly fitted or top-dose-only effect; inactive means flat fitted curve, though single readings scatter. A potency beside an inconclusive call is a rough fit, not a confirmed value.
Assay: qHTS for Inhibitors of Vif-A3F Interactions: qHTS; further: nearly all actives have a fitted effect of over 65% in size; on activity, negative = active: % of control where 0% means no effect
Settings: HeLa A3F-eYFP + Vif (tagged APOBEC3F with the HIV-1 protein that degrades it), YFP fluorescence increase; series mostly up to 46.1 µM; activity, negative = active: at the top concentration
How it was run: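 Fluorescence increase (Ex 488/Em 500-530) after overnight compound treatment at 37 deg C flags inhibition of Vif-driven A3F-eYFP loss in stable HeLa A3F-eYFP/Vif cells seeded overnight beforehand.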
Potency means the concentration at half of the fitted maximal effect.

For `COc1ccc(NS(=O)(=O)c2ccc3ccccc3c2)c2ncccc12`, which Potency is on record?
The Potency was inconclusive: 3.55 µM [inhibitor, single point].

For `O=Cc1[nH]c2ccccc2c1N(C(=O)CCl)c1ccc([N+](=O)[O-])cc1`, which “activity, negative = active” value is on record?
Its value is inactive: 6.92%.

With `CC(=O)Nc1ccc(Nc2nc3ccc(C)cc3n3nnnc23)cc1` as the molecule, how does the Potency read?
The Potency was inconclusive: 15.8 µM [inhibitor, partial curve, poor fit].

For `O=C(Cc1ccccc1Cl)NNC(=O)Nc1ccccc1`, which Potency is on record?
Its Potency is inconclusive: 35.5 µM [inhibitor, single point].

Which Potency does the source give for `CCOc1ccc2cc(-c3nnc(Nc4ccccc4F)s3)c(=O)oc2c1` here?
Its Potency is inconclusive: 3.55 µM [inhibitor, partial curve, poor fit].

For `CCOc1ccc(S(=O)(=O)c2cn(Cc3ccc(C)cc3)c3ccc(OC)cc3c2=O)cc1`, which “activity, negative = active” value is on record?
Its value is inactive: 1.23%.

With `Cc1ccc(-c2cnc(NCc3ccc(C(C)C)cc3)n2C)cc1` as the molecule, how does the Potency read?
The Potency was inconclusive: 35.5 µM [inhibitor, single point].

For `O=c1cc(N2CCCCC2)c(-c2ccccc2)nn1Cc1ccc(Cl)cc1Cl`, which “activity, negative = active” value is on record?
The value was inactive: -18%.

For `COc1ccc(-c2ccc(NS(=O)(=O)c3ccc([N+](=O)[O-])cc3)cc2)nn1`, which Potency is on record?
The Potency was inconclusive: 35.5 µM [inhibitor, single point].

With `CN(C)c1nc2ccccc2c(N)c1-c1ccccc1` as the molecule, how does the “activity, negative = active” value read?
The value was inactive: -6.76%.

Which Potency does the source give for `O=C(OCCC12CC3CC(CC(C3)C1)C2)c1ccc(NCc2cc(O)ccc2O)cc1` here?
The Potency was inconclusive: 35.5 µM [inhibitor, single point].

Which “activity, negative = active” value does the source give for `CCCOc1ccc(C2C(C(=O)c3cc4ccccc4o3)=C(O)C(=O)N2c2cc(C)on2)cc1OC` (stereo not given) here?
The value was inactive: -22.1%.

For `CN(Cc1cccc(F)c1)C(=O)CSc1nnnn1C1CC1`, which Potency is on record?
Its Potency is inconclusive: 7.08 µM [inhibitor, partial curve, poor fit].

For `NC(=O)COc1ccc(C(=O)/C=C2/C(=O)Nc3ccccc32)cc1`, which Potency is on record?
Its Potency is inconclusive: 31.6 µM [inhibitor, single point].

Which Potency does the source give for `O=S(=O)(Nc1nc2ccccc2nc1-[n+]1cccc(N=C([O-])c2ccc(Cl)cc2)c1)c1ccccc1` here?
Its Potency is inconclusive: 35.5 µM [inhibitor, single point].

For `O=C(O)/C=C\C(=O)Nc1ccccc1C(=O)N1CCC(O)(c2ccc(Cl)cc2)CC1`, which Potency is on record?
The Potency was inconclusive: 12.6 µM [inhibitor, single point].

For `CCCn1c(N)c(N(CCOC)C(=O)CCC2CCCCC2)c(=O)[nH]c1=O`, which Potency is on record?
Its Potency is inconclusive: 6.31 µM [inhibitor, single point].

For `Cc1cc(Cl)ccc1NC(=O)C1CCN(S(=O)(=O)c2ccc3[nH]c(=O)ccc3c2)CC1`, which “activity, negative = active” value is on record?
The value was inactive: -0.948%.

For `Cc1ccc(NC(=O)CN2CCOCC2)cc1Cl`, which Potency is on record?
The Potency was inconclusive: 17.8 µM [inhibitor, single point].

For `Cc1cc(NC(=O)/C(C#N)=C/c2ccc(-c3cccc(C(F)(F)F)c3)o2)n(-c2ccccc2)n1`, which Potency is on record?
Its Potency is inconclusive: 35.5 µM [inhibitor, single point].

For `O=C(N/N=C/c1sc2ccccc2c1O)c1ccccc1`, which Potency is on record?
The Potency was inconclusive: 22.4 µM [inhibitor, partial curve, poor fit].

For `CCN1CC=C2C(C#N)=C(N)C(C#N)(C#N)C(CCc3ccccc3)C2C1` (stereo not given), which Potency is on record?
Its Potency is inconclusive: 25.1 µM [inhibitor, single point].

With `CCOc1ccc(C(C)NC(=S)NCc2ccc(Cl)cc2)cc1` (stereo not given) as the molecule, how does the Potency read?
Its Potency is inconclusive: 22.4 µM [inhibitor, single point].

Which Potency does the source give for `CC1(C)CC(=O)C2=C(C1)NC(Nc1nc3ccccc3o1)=NC2c1ccccn1` (stereo not given) here?
Its Potency is inconclusive: 6.31 µM [inhibitor, full curve, poor fit].

For `Cc1cc(C)nc(NC(=S)Nc2ccc(F)cc2F)c1`, which “activity, negative = active” value is on record?
Its value is inactive: 3.7%.

With `COc1cc2c(cc1OC)C(C)N(C(=O)c1cc3c(s1)-c1c(C)cccc1OC3)CC2` (stereo not given) as the molecule, how does the “activity, negative = active” value read?
The value was inactive: 1.24%.

For `COc1cccc(/C=C(\C#N)c2nc3ccc(C)cc3[nH]2)c1`, which Potency is on record?
Its Potency is inconclusive: 22.4 µM [inhibitor, single point].

Which Potency does the source give for `N#Cc1ncc(-c2ccc3c(c2)OCCOCCOCCOCCOCCO3)nc1C#N` here?
The Potency was inconclusive: 17.8 µM [inhibitor, partial curve, poor fit].

With `O=C(CSC1=Nc2ccccc2C2=NC(CCC(=O)NC3CCCCC3)C(=O)N12)Nc1cccc(Cl)c1` (stereo not given) as the molecule, how does the Potency read?
The Potency was inconclusive: 35.5 µM [inhibitor, single point].

With `Cc1c(Cl)cccc1NC(=S)N(Cc1ccco1)C(C)c1ccccn1` (stereo not given) as the molecule, how does the Potency read?
Its Potency is inconclusive: 35.5 µM [inhibitor, single point].

With `CCOC(=O)c1cnc(-n2nc(C)cc2C)nc1NNc1cc(C)nc(-c2ccccc2)n1` as the molecule, how does the Potency read?
Its Potency is inconclusive: 5.62 µM [inhibitor, full curve, poor fit].

For `COc1ccc(S(=O)(=O)N2CCOC2CNC(=O)C(=O)NCc2ccccn2)cc1` (stereo not given), which Potency is on record?
Its Potency is inconclusive: 35.5 µM [inhibitor, single point].

Which Potency does the source give for `O=C(O)CSc1ccnc2cc(Cl)ccc12` here?
Its Potency is inconclusive: 1.58 µM [inhibitor, partial curve, poor fit].

Which Potency does the source give for `O=C(Nc1nnc(S(=O)(=O)N2CCCC2)s1)c1ccccc1Cl` here?
Its Potency is “inactive”.

Which “activity, negative = active” value does the source give for `FC(F)(F)c1ccccc1CN1CCC(Cc2ccccc2)CC1` here?
The value was inactive: -3.94%.

With `COCCn1nnnc1C(c1ccc2ncccc2c1)N1CCN(c2ccccc2F)CC1` (stereo not given) as the molecule, how does the “activity, negative = active” value read?
Its value is inactive: -2.12%.

For `CSc1ccc(C2c3c(oc4ccc(F)cc4c3=O)C(=O)N2c2ccc(C)cn2)cc1` (stereo not given), which Potency is on record?
Its Potency is inconclusive: 3.16 µM [inhibitor, partial curve, poor fit].

For `Cc1ccc(-n2c(=S)[nH]c3sc4c(c3c2=O)CCC4)cc1`, which Potency is on record?
The Potency was inconclusive: 10 µM [inhibitor, partial curve, poor fit].

For `O=C(CNC(=O)c1ccc(Cl)cc1Cl)OCn1nnc2ccccc2c1=O`, which Potency is on record?
The Potency was inconclusive: 3.55 µM [inhibitor, single point].

For `O=C(Nc1c(-c2ccc(F)cc2)nc2ccccn12)c1ccc(F)cc1`, which Potency is on record?
Its Potency is inconclusive: 35.5 µM [inhibitor, single point].

For `O=C(CCCn1c(=O)c2cccn2c2cccnc21)NCc1cccc(Br)c1`, which Potency is on record?
Its Potency is inconclusive: 25.1 µM [inhibitor, partial curve, poor fit].

For `C=CCNC(=S)N/N=C(\C)c1cccnc1`, which Potency is on record?
Its Potency is inconclusive: 25.1 µM [inhibitor, single point].

With `C=CCC(C=C)[N+]1(CC(=O)OC)CCCCC1` (stereo not given) as the molecule, how does the Potency read?
Its Potency is inconclusive: 35.5 µM [inhibitor, single point].

Which Potency does the source give for `O=[N+]([O-])c1ccc(O)c(/C=N/NC(=S)Nc2ccc(Cl)cc2Cl)c1` here?
The Potency was inconclusive: 3.55 µM [inhibitor, partial curve, poor fit].

Which “activity, negative = active” value does the source give for `Cc1cc(NCCCn2ccnc2)n2nc(C)c(-c3ccccc3)c2n1` here?
The value was inactive: -10.1%.

For `CC(C)CNS(=O)(=O)c1ccc(CCC(=O)N2CCC(C(N)=O)CC2)cc1`, which Potency is on record?
Its Potency is inconclusive: 3.16 µM [inhibitor, single point].

Which Potency does the source give for `CCCCN1C(=O)N(c2ccc(Cl)cc2)C(C)(O)CC1(C)C` (stereo not given) here?
The Potency was inconclusive: 3.55 µM [inhibitor, full curve, poor fit].

With `Clc1cccc(N/N=C/c2ccncc2)c1` as the molecule, how does the “activity, negative = active” value read?
The value was inactive: -18.8%.

For `O=C(N/N=C/C(Cl)=C/c1ccccc1)c1ccncc1`, which Potency is on record?
Its Potency is inconclusive: 35.5 µM [inhibitor, single point].

With `C#CCn1c(=NC(=O)c2ccc(Br)s2)sc2cccc(OC)c21` as the molecule, how does the Potency read?
The Potency was inconclusive: 22.4 µM [inhibitor, single point].

With `CC(=O)Nc1cccc(-n2cc3c(c2-c2ccccc2Cl)c(=O)n(C)c(=O)n3C)c1` as the molecule, how does the “activity, negative = active” value read?
Its value is inactive: -5.12%.

With `Oc1cccc(C=Nc2cccc3ccccc23)c1O` as the molecule, how does the Potency read?
Its Potency is inconclusive: 11.2 µM [inhibitor, partial curve, poor fit].

With `COc1cccc(NC(=S)NN=C2CCC(C(C)(C)C)CC2)c1` (stereo not given) as the molecule, how does the Potency read?
Its Potency is inconclusive: 35.5 µM [inhibitor, single point].

For `CCc1nnc(NC(=O)COc2ccc3c(c2)OCO3)s1`, which Potency is on record?
The Potency was inconclusive: 25.1 µM [inhibitor, single point].

With `Cc1ccccc1Nc1c(-c2cccnc2)nc2ccc(Cl)cn12` as the molecule, how does the Potency read?
Its Potency is inconclusive: 11.2 µM [inhibitor, partial curve].

Which Potency does the source give for `O=S(=O)(Cc1cc(-c2ccccc2Cl)no1)c1ccccc1` here?
Its Potency is inconclusive: 6.31 µM [inhibitor, single point].

Which Potency does the source give for `Oc1ccc(C=NNC(=S)Nc2ccc(F)cc2)c(O)c1` here?
Its Potency is active: 25.1 µM.

With `COc1cc(/C=C2/C(=O)NN(c3ccc(Cl)cc3)C2=O)ccc1OC(=O)c1ccco1` as the molecule, how does the “activity, negative = active” value read?
Its value is inactive: -23.3%.

Which Potency does the source give for `Cc1ccc(/C([O-])=C(/C(=S)NCc2ccc3c(c2)OCO3)[n+]2ccc(N(C)C)cc2)c(C)c1` here?
Its Potency is inconclusive: 10 µM [inhibitor, partial curve, poor fit].

Which Potency does the source give for `O=c1c2ccccc2c(C=Nc2cccc(O)c2)c(O)n1-c1ccc2c(c1)OCO2` here?
Its Potency is inconclusive: 35.5 µM [inhibitor, single point].

For `COc1ccccc1N1C(=O)S/C(=C\c2ccc(C)s2)C1=O`, which Potency is on record?
Its Potency is inconclusive: 17.8 µM [inhibitor, partial curve, poor fit].

With `CCCCc1nnc(NC(=O)c2oc3ccccc3c2C)s1` as the molecule, how does the Potency read?
Its Potency is inconclusive: 6.31 µM [inhibitor, single point].

Which “activity, negative = active” value does the source give for `CC(C)c1cnc2c(c1SCC(=O)NCc1ccccc1Cl)c(=O)n(C)c(=O)n2C` here?
The value was inactive: 0.532%.

For `O=C(NCC(c1ccco1)N1CCN(c2ccc(F)cc2)CC1)C(=O)NC1CCCC1` (stereo not given), which Potency is on record?
The Potency was inconclusive: 0.891 µM [inhibitor, partial curve, poor fit].

With `COc1cc2c3c(c1)c(N=NC(N)=S)c(O)n3C(C)(C)C=C2C` as the molecule, how does the Potency read?
Its Potency is inconclusive: 2.24 µM [inhibitor, full curve].

— PubChem BioAssay AID602313 (National Center for Advancing Translational Sciences (NCATS), 2012)
